Literature values in patent US20070287931A1, “Methods and systems for administering an appropriate pharmacological treatment to a patient for managing epilepsy and other neurological disorders” (priority 2006, published 2007).
At least one structure is not confirmed: it was looked up by name or label, or the drawing left a doubt.

System: seizures

CCC1(c2ccccc2)C(=O)NC(=O)NC1=O [phenobarbital, Phenobarbital]
minimum plasma concentration for prophylaxis against febrile convulsions: about 15 μg/ml
